Experimental data taken from paper PMC12663271.
Results are given in words; binding and its absence hold for the method and conditions named. Binding seen in cells or lysates may run through a third protein. Some binding calls cover weakened binding; strength is not graded here. Sequences can lack the tags named with a protein.

Amino acid sequences for entries named in this document (tags omitted).
UniProt Q13131: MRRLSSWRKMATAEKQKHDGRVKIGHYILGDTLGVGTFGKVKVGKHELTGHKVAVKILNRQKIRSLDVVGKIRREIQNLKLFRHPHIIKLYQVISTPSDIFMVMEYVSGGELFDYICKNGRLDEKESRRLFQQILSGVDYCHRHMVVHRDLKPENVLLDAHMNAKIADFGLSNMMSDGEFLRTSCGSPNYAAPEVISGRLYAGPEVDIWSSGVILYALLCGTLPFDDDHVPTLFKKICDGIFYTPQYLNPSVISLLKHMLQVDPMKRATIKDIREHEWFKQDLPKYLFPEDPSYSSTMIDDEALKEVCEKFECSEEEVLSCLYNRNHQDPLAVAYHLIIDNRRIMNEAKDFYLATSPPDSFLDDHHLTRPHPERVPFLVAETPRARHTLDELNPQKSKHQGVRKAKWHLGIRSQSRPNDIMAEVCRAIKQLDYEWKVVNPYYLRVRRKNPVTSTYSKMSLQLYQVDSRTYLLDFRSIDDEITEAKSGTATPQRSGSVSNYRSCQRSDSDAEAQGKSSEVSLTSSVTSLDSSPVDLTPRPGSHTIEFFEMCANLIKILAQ

Target: Flag-tagged AMPKα1 (UniProt Q13131)
Test: co-IP; 293T cells co-transfected with Flag- and HA-tagged constructs; lysis in BC300 (300 mM KCl, 0.1% NP40), diluted with an equal volume of BC0; anti-Flag M2 magnetic beads; washes with BC150; western blot; glucose said to have a limited effect on the interaction (Fig. S3A)

B1: HA-tagged WIP1 (enzyme, UniProt O15297 1-605)
chain: MAGLYSLGVSVFSDQGGRKYMEDVTQIVVEPEPTAEEKPSPRRSLSQPLPPRPSPAALPGGEVSGKGPAVAAREARDPLPDAGASPAPSRCCRRRSSVAFFAVCDGHGGREAAQFAREHLWGFIKKQKGFTSSEPAKVCAAIRKGFLACHLAMWKKLAEWPKTMTGLPSTSGTTASVVIIRGMKMYVAHVGDSGVVLGIQDDPKDDFVRAVEVTQDHKPELPKERERIEGLGGSVMNKSGVNRVVWKRPRLTHNGPVRRSTVIDQIPFLAVARALGDLWSYDFFSGEFVVSPEPDTSVHTLDPQKHKYIILGSDGLWNMIPPQDAISMCQDQEEKKYLMGEHGQSCAKMLVNRALGRWRQRMLRADNTSAIVICISPEVDNQGNFTNEDELYLNLTDSPSYNSQETCVMTPSPCSTPPVKSLEEDPWPRVNSKDHIPALVRSNAFSENFLEVSAEIARENVQGVVIPSKDPEPLEENCAKALTLRIHDSLNNSLPIGLVPTNSTNTVMDQKNLKMSTPGQMKAQEIERTPPTNFKRTLEESNSGPLMKKHRRNGLSRSSGAQPASLPTTSQRKNSVKLTMRRRLRGQKKIGNPLLHQHRKTVCVC
- binding: binds
